Reference: publication doi:10.1101/2023.03.06.531406
These are yes or no findings as the source states them, for the method shown. Binding seen in cells or lysates may run through a third protein. Some entries that bind do so weakly or less than the wild type. Tags and fused reporters may be left off the sequences shown.

Chains of the proteins cited; added tags and fusions are not shown. Residues count along the entry.
UniProt P18572, residues 217-389: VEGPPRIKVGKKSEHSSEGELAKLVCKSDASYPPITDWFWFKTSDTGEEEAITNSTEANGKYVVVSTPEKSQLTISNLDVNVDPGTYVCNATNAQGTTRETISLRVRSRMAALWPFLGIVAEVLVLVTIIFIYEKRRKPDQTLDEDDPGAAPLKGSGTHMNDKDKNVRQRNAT

Molecular target: T1, Flag-tagged calpain 4 (full length) (UniProt O88456)
T1 sequence: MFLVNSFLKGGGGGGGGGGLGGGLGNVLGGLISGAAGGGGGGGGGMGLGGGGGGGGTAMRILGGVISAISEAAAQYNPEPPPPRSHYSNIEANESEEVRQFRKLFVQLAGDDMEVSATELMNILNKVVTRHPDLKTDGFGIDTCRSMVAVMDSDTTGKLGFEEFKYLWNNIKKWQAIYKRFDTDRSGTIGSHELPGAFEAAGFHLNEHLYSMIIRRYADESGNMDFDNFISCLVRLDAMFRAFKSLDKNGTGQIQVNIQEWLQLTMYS
Test: co-IP

HA-tagged basigin lacking the N-terminal 100 amino acids (from UniProt P18572-2 101-273) (domain or fragment)
binding: binds
